In PMC13226697, “Stress-induced OMA1-mediated cleavage of AIFM1 suppresses cell growth by controlling mitochondrial OXPHOS activity” (The EMBO Journal, 2026):
These are yes or no findings as the source states them, for the method shown. In cells and extracts the contact can be indirect. Some binding calls cover weakened binding; strength is not graded here.

By UniProt entry, the sequences of proteins in these tests, tags left out. Where a name states a change or a piece, a line headed by the entry shows the natural chain unless it says otherwise. Chains listed by the source or under a name are the forms on record and can include a tag or linker. Residues count along the entry.
AIFM1^TCS/TEV, soluble product of AIFM1^TCS cleaved by IMS-TEV protease (Q9Z0X1, form named): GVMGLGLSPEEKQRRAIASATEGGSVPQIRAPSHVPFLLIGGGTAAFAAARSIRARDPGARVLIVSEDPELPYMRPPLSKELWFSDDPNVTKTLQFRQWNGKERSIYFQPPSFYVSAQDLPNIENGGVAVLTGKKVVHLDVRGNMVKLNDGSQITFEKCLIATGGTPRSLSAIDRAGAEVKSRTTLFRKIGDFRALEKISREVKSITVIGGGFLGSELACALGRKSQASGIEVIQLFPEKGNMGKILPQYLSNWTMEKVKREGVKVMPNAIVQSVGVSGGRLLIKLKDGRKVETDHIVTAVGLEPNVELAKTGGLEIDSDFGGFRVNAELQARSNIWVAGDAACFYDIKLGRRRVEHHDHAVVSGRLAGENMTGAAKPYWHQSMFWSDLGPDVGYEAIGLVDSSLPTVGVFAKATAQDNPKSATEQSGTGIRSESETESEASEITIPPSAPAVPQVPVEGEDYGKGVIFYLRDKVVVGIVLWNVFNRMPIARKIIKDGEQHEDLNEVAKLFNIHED
UniProt Q99595: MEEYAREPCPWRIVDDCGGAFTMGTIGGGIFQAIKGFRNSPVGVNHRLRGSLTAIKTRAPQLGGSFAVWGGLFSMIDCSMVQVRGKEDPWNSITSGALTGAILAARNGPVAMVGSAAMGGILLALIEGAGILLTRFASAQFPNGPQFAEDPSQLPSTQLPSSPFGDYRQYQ
UniProt Q3ZCQ8, residues 45-353: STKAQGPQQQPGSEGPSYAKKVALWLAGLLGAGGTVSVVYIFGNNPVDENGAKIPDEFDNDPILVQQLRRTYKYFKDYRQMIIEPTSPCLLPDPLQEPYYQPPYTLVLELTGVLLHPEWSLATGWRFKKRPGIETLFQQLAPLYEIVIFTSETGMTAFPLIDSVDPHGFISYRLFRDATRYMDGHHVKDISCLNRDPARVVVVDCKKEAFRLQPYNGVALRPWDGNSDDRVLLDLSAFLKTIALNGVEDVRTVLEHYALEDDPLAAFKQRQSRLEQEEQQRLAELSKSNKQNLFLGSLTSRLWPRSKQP
UniProt O60830: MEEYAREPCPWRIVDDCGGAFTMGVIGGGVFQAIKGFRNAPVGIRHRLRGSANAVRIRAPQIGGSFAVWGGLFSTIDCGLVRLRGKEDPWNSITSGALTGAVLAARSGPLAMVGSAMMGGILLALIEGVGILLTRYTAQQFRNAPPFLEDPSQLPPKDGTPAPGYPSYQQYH

T1: TIM23, endogenous human (human (endogenous in Flp-In T-REx-293 and HeLa)) (UniProt O14925)
T1 sequence: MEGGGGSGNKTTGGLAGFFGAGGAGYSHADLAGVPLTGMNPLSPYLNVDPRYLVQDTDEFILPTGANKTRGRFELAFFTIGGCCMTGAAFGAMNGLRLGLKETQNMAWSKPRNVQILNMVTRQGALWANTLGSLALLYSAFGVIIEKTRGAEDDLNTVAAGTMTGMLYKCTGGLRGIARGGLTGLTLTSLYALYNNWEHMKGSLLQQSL


Experiments:
[1] = biological target: T1, TIM23, endogenous human (human (endogenous in Flp-In T-REx-293 and HeLa)); test: co-IP; HeLa lysates, with or without CHX (10 μg/mL), immunoprecipitated with anti-TIM23 monoclonal antibody or control IgG (anti-GFP), western blot
[2] = biological target: AIFM1^TCS/TEV, soluble product of AIFM1^TCS cleaved by IMS-TEV protease (murine) (UniProt Q9Z0X1); test: co-IP; mitochondrial extracts of AIFM1^TCS and AIFM1^TCS/TEV cells immunoprecipitated with anti-Myc, immunoblot

Molecule	binding [1]	binding [2]
TIM17A, endogenous human (from UniProt Q99595 1-171)	binds	–
TIM23, endogenous human (protein, UniProt O14925 1-209) MEGGGGSGNKTTGGLAGFFGAGGAGYSHADLAGVPLTGMNPLSPYLNVDPRYLVQDTDEFILPTGANKTRGRFELAFFTIGGCCMTGAAFGAMNGLRLGLKETQNMAWSKPRNVQILNMVTRQGALWANTLGSLALLYSAFGVIIEKTRGAEDDLNTVAAGTMTGMLYKCTGGLRGIARGGLTGLTLTSLYALYNNWEHMKGSLLQQSL	–	binds

Next, values leading:

binding [1]	binding [2]	Molecule
–	binds	TIM50, endogenous human (from UniProt Q3ZCQ8 45-353)
binds	–	TIM17B, endogenous human (from UniProt O60830 1-172)
